Values of other authors as cited in patent US20110104052A1, “METHODS OF SYNTHESIS AND USE OF CHEMOSPHERES” (THE JOHNS HOPKINS UNIVERSITY, priority 2007, published 2011).
For at least one compound, name, drawing or mass did not settle the structure.

Tested on: tumors growing within the liver
Conditions: rabbit model for liver cancer, single bolus intraarterial injection; cited from earlier work

Question: Which “tumor cells killed within tumors growing within the liver” value does the source give for `O=C(O)C(=O)CBr` [3-bromopyruvate] here?
Answer: up to 90%
